Paper PMC5996148
The other results are listed elsewhere or left out.

Assays:
Assay in all cases: protein microarray (ProtoArray v5.0), streptavidin-Alexa Fluor 647
Conditions in all cases: 3'-biotin; 20 mM Tris (pH 7.5), 5 mM MgCl2, 100 mM KCl, 0.1% Tween-20, A/T-rich and random oligonucleotide blockers; temperature not stated; high values mean tight binding
[1] = system: Nuclear receptor-binding protein (human)
[2] = system: Nucleotide-binding protein 1 (human)
[3] = system: ODAM (human)
[4] = system: OGN (human)
[5] = system: OGT (human)
[6] = system: OPA1 (human)
[7] = system: OPA3 (human)
[8] = system: OR4D6 (human)
[9] = system: ORM1 (human)
[10] = system: ORM2 (human)

## GGGGACAGGGGTATGGGGAGGGG [G4-3 biotinylated (CtG)]
[1]
  binding signal: -0.325 z-score
[2]
  binding signal: -0.293 z-score
[3]
  binding signal: -0.334 z-score
[4]
  binding signal: -0.326 z-score
[5]
  binding signal: -0.342 z-score
[6]
  binding signal: -0.281 z-score
[7]
  binding signal: -0.304 z-score
[8]
  binding signal: -0.318 z-score
[9]
  binding signal: -0.329 z-score
[10]
  binding signal: -0.326 z-score
